Article PMC5836524
Changes are numbered by the printed parent chain. No constants are given. Whether binding was seen depends on the method and setting. In cells and extracts the contact can be indirect. Some binding calls cover weakened binding; strength is not graded here. For some of these results: Where a sequence is shown, tags or fusion partners need not be part of it.

Amino acid sequences for entries named in this document (tags omitted). Residues count along the entry.
UniProt P62944, residues 616-937: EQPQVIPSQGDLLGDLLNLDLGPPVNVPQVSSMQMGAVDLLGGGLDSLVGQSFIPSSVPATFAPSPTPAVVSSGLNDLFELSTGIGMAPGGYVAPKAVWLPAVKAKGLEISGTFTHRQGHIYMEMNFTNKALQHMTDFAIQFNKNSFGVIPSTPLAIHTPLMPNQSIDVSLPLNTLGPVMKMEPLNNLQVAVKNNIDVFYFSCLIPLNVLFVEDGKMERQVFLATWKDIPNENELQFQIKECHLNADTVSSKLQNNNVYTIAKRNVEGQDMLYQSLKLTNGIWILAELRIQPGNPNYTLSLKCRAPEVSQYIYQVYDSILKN
UniProt Q00610: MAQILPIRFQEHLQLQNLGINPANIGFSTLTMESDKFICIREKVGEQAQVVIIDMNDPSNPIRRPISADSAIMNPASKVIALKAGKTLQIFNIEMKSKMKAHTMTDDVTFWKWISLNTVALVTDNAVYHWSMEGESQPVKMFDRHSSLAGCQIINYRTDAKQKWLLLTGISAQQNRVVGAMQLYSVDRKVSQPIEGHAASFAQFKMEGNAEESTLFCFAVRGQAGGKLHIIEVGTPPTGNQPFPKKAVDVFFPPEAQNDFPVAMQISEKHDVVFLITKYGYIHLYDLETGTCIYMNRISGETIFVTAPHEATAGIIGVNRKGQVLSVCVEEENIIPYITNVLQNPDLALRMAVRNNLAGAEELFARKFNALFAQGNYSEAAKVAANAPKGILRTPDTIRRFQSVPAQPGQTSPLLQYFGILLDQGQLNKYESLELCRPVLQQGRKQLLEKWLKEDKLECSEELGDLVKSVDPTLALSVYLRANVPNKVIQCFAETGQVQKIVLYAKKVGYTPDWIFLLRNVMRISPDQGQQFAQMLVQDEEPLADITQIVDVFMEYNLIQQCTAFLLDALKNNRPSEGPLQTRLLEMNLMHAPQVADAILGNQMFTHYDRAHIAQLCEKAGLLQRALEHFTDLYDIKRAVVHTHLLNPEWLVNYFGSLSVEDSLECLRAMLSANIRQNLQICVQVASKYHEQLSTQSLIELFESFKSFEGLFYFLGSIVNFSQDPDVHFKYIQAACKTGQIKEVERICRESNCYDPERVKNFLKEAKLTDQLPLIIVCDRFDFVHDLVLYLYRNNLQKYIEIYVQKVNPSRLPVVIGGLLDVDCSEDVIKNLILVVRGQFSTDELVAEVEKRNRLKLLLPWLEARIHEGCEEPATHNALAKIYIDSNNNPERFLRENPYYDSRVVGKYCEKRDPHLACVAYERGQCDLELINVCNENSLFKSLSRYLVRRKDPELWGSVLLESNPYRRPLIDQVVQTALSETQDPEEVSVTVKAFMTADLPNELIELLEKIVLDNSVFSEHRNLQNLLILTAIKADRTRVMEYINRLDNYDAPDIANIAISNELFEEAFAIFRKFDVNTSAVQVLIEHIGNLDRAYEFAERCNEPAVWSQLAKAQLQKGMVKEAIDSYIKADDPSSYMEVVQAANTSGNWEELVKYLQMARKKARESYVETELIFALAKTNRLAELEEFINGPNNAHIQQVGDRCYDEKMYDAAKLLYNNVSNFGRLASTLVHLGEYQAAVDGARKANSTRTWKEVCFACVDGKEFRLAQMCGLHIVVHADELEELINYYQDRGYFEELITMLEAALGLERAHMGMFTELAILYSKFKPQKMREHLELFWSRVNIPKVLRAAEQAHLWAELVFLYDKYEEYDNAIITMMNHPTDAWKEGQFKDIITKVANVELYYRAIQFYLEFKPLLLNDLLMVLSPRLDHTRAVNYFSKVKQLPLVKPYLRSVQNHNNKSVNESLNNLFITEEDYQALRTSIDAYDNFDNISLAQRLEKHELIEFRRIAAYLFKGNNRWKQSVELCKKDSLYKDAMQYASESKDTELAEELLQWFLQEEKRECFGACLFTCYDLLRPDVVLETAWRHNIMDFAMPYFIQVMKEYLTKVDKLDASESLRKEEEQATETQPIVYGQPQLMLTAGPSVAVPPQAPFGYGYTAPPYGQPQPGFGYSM

Legend:
[1] = molecular target: GST-AP2-β2-appendage with hinge (aa 616-937) (rat) (UniProt P62944); assay: pull-down; GST-AP2-β-appendage with hinge on beads incubated with lysates from HeLa cells expressing EGFP-Eps15R wild type or the F703A, F722A, F728A mutant; clathrin and EGFP immunoblotting; only the target purified
[2] = molecular target: T1, GST-Eps15 aa 687-723 (human) (UniProt P42566); assay: pull-down; GST-tagged Eps15R or Eps15 motif domain constructs on beads incubated with detergent extracts from HeLa cells (100-200 μg lysate, 30-60 min, 4°C); immunoblot for clathrin and AP2 β-adaptin; only the target purified
T1 sequence: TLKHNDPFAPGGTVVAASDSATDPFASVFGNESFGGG

[3] = molecular target: T2, GST-Eps15R aa 699-729 (mouse) (UniProt Q60902); assay: as above
T2 sequence: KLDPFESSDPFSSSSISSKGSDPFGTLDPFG

[4] = molecular target: T3, GST-Eps15R aa 701-747 D707A (mouse) (UniProt Q60902); assay: as above
T3 sequence: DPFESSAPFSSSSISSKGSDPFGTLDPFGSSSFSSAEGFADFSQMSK

[5] = molecular target: T4, GST-Eps15R aa 701-747 F709A (mouse) (UniProt Q60902); assay: as above
T4 sequence: T3 sequence with A7D, F9A

[6] = molecular target: T5, EGFP-Eps15R F703A/F722A/F728A triple mutant (mouse) (UniProt Q60902); assay: co-IP; EGFP-tagged Eps15R, its truncations or mutant, EGFP-Eps15 or EGFP immunoprecipitated from HeLa cell extract (20 mM HEPES pH 7.4, 100 mM NaCl, 0.5 mM TCEP, 0.1% NP-40; 4°C); immunoblot for clathrin, AP2 β-adaptin and EGFP
T5 sequence: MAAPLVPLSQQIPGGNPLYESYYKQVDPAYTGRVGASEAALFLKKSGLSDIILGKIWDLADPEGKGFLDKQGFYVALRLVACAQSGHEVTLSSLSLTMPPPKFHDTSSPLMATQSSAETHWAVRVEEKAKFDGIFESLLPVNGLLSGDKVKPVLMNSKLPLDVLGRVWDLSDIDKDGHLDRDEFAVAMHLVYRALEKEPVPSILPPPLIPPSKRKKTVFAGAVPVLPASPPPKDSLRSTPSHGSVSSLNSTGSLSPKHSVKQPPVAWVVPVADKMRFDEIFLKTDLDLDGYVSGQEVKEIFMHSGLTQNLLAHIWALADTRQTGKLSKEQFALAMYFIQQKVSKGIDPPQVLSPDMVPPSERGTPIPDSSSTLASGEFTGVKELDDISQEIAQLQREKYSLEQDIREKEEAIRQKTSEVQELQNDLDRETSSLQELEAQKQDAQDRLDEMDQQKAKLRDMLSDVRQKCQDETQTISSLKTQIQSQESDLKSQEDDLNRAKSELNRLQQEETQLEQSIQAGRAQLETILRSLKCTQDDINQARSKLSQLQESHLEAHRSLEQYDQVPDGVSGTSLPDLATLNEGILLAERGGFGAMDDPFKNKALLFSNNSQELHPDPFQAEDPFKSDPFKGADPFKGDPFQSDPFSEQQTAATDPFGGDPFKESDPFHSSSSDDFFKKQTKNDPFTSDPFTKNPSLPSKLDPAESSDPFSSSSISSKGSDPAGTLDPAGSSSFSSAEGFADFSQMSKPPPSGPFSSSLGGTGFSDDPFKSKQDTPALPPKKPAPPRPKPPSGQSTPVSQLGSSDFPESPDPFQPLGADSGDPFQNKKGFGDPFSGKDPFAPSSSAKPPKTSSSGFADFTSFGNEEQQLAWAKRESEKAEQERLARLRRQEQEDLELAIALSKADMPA

[7] = molecular target: T6, EGFP-Eps15R wild type, full-length (aa 1-907) (mouse) (UniProt Q60902); assay: as above
T6 sequence: T5 sequence with A703F, A722F, A728F

binding [1]: binds
binding [2]: no binding
binding [3]: binds
binding [4]: binds
binding [5]: binds
binding [6]: binds
binding [7]: binds
Substance: clathrin (endogenous, detected by blot for clathrin heavy chain) (from UniProt Q00610 1-1675)
